According to doi:10.1101/2024.09.30.615192:
These are yes or no findings as the source states them, for the method shown. In cells and extracts the contact can be indirect. A yes stands for co-enrichment or nearness to the bait. Other partners may have been found.

Protein sequences, listed by entry. Tags and fused reporters are not part of them. Residues count along the entry.
UniProt P35613, residues 22-385: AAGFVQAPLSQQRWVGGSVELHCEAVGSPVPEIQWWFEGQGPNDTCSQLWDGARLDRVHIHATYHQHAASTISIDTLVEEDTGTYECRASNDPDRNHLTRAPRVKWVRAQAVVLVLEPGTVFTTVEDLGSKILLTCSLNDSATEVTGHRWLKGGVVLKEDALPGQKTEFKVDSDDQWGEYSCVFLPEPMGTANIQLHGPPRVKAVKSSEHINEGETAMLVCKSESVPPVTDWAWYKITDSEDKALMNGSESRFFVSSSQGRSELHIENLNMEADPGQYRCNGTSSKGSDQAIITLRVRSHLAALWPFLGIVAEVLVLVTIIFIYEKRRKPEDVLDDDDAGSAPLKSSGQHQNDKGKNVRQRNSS

Tests used:
Assay in all cases: affinity purification with mass spectrometry
SLC16A11 (human) = target: T1, SLC16A11 (human) (UniProt Q8NCK7)
T1 sequence: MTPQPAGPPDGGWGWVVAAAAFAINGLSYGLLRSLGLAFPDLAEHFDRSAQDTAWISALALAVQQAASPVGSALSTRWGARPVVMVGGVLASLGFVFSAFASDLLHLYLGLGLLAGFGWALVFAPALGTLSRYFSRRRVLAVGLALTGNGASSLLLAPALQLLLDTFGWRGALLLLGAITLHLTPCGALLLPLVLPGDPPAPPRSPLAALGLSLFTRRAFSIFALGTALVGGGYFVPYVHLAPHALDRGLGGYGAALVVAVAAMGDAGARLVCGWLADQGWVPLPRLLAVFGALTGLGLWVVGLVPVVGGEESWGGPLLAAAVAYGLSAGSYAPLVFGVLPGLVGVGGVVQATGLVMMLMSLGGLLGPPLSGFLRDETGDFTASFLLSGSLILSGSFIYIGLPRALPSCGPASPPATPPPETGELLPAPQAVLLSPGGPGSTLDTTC

SLCO1B1 (human) = target: T2, SLCO1B1 (human) (UniProt Q9Y6L6)
T2 sequence: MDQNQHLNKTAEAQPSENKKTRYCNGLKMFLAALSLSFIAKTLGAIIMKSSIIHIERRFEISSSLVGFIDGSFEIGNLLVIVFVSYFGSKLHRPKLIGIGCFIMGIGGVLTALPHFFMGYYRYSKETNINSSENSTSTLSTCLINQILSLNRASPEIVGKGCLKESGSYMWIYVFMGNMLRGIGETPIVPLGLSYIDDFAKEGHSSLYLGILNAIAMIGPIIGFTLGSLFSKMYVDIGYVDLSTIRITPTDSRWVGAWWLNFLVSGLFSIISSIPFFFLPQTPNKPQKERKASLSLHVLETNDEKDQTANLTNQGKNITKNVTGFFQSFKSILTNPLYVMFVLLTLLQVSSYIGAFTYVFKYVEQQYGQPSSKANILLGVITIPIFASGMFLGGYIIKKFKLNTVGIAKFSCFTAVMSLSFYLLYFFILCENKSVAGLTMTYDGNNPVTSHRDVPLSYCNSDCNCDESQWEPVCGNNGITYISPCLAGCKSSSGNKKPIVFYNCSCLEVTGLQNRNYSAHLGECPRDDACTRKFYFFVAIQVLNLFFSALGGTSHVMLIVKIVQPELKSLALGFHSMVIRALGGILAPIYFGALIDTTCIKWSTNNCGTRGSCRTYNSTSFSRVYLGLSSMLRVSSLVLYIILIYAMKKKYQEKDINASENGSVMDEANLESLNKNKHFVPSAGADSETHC

MFSD8 (human) = target: T3, MFSD8 (human) (UniProt Q8NHS3)
T3 sequence: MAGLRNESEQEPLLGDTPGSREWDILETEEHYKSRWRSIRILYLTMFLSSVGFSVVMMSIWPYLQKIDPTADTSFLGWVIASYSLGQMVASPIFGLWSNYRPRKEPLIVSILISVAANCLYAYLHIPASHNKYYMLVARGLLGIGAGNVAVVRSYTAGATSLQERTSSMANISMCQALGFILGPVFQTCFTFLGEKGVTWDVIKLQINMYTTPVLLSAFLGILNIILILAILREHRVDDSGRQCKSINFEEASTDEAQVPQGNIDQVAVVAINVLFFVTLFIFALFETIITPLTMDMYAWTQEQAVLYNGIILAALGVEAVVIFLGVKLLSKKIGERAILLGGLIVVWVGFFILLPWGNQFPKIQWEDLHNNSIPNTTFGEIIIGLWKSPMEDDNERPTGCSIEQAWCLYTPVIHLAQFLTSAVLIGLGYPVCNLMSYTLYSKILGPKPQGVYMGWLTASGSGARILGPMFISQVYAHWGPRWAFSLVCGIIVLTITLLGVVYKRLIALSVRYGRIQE

- binding (SLC16A11 (human)): binds
- binding (SLCO1B1 (human)): binds
- binding (MFSD8 (human)): binds
Substance: Basigin (from UniProt P35613 22-385)
